# Data published in US20050053990.
# Tests used:
# [1] = system: AvaII; test: enzyme reaction in vitro; settings: purified native protein, protein details: New England Biolabs restriction endonuclease
# [2] = system: Cac8I; test: enzyme reaction in vitro; settings: purified native protein, protein details: New England Biolabs restriction endonuclease
sequence,measurement,setting,value
AAAGCUAAGCGGACCGAGUCGACUGCAUCGUCAUGAAAAAA / TTTTTTCATGACGATGCAGTCGACTCGGTCCGCTTAGCTTT [A/C RNA/DNA duplex],activity on this sequence,"[1]; RNA strand cleaved, NEBuffer 4, 37 C, 4 h, label: 3'-Fam on RNA strand, DNA:RNA hybrid",active
TTTTTTCATGACGATGCAGTCGACTCGGTCCGCTTAGCTTT [B ssDNA],activity on this sequence,"[1]; ssDNA not cleaved, label: 3'-Fam, single-stranded DNA",not active
UAAAGCAUGCGGGCGCGCCUUUA [J ssRNA],activity on this sequence,"[2]; ssRNA not cleaved, label: 5'-FAM",not active
AAAGCUAAGCGGACCGAGUCGACUGCAUCGUCAUGAAAAAA / TTTTTTCATGACGATGCAGTCGACTCGGTCCGCTTAGCTTT [G/F methylated RNA/DNA duplex],activity on this sequence,"[1]; DNA strand TTTTTTCATGA(m5C)GATGCAGTCG(n6A)CTCGGTC(m5C)GC..: 5mC and N6-methyl-A, cleavage blocked by methylation of final C in DNA strand, label: 5'-Fam RNA, 3'-Fam DNA, DNA:RNA hybrid, variant of A/B RNA/DNA duplex",not active
AAAGCTAAGCGGACCGAGTCGACTGCATCGTCATGAAAAAA (double strand) [D/F methylated DNA duplex],activity on this sequence,"[1]; bottom strand TTTTTTCATGA(m5C)GATGCAGTCG(n6A)CTCGGTC(m5C)GC..: 5mC and N6-methyl-A, cleavage blocked by methylation of final C, label: 3'-Fam, variant of B/D DNA duplex",not active
AAAGCUAAGCGGACCGAGUCGACUGCAUCGUCAUGAAAAAA / UUUUUUCAUGACGAUGCAGUCGACUCGGUCCGCUUAGCUUU [A/E RNA duplex],activity on this sequence,"[1]; dsRNA not cleaved, label: 3'-Fam on both strands",not active
UAAAGGCGCGCCCGCAUGCUUUA / UAAAGCAUGCGGGCGCGCCUUUA [I/J RNA duplex],activity on this sequence,"[2]; dsRNA not cleaved, label: 5'-FAM on both strands",not active
AAAGCUAAGCGGACCGAGUCGACUGCAUCGUCAUGAAAAAA [A ssRNA],activity on this sequence,"[1]; ssRNA not cleaved, label: 3'-Fam",not active
AAAGCTAAGCGGACCGAGTCGACTGCATCGTCATGAAAAAA (double strand) [B/D DNA duplex],activity on this sequence,"[1]; dsDNA cleaved, NEBuffer 4, 37 C, label: 3'-Fam on both strands",active
TAAAGGCGCGCCCGCATGCTTTA (double strand) [H/L DNA duplex],activity on this sequence,"[2]; dsDNA cleaved, NEBuffer 3, label: 5'-FAM on both strands",active
TAAAGGCGCGCCCGCATGCTTTA [H ssDNA],activity on this sequence,"[2]; ssDNA not cleaved, label: 5'-FAM, single-stranded DNA",not active
UAAAGGCGCGCCCGCAUGCUUUA / TAAAGCATGCGGGCGCGCCTTTA [I/K RNA/DNA duplex],activity on this sequence,"[2]; RNA strand cleaved, NEBuffer 3, label: 5'-FAM on RNA strand, DNA:RNA hybrid",active

# For at least one entry, the source does not settle the construct or the ends of the probe. A negative result means that nothing was seen under these conditions.
